Assay results as given in PMC3776778, “A Fully Human Inhibitory Monoclonal Antibody to the Wnt Receptor RYK” (PLoS ONE, 2013).
No constants are given. Whether binding was seen depends on the method and setting. In cells and extracts the contact can be indirect. Some binding calls cover weakened binding; strength is not graded here. Sequences can lack the tags named with a protein.

Amino acid sequences for entries named in this document (tags omitted). Chains listed by the source or under a name are the forms on record and can include a tag or linker. Residues count along the entry.
hRYK.Fc (entire human RYK extracellular region fused to Fc.FLAG) (P34925, residues 26-227): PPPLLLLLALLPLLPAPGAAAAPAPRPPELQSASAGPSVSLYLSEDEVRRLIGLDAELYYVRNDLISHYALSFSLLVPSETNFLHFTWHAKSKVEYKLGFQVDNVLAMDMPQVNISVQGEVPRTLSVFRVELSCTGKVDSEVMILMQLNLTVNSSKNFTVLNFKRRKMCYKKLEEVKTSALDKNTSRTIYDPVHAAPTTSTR
hRYKWD.Fc (WIF domain of human RYK fused to the Fc.FLAG region of human IgG1) (P34925, residues 66-194): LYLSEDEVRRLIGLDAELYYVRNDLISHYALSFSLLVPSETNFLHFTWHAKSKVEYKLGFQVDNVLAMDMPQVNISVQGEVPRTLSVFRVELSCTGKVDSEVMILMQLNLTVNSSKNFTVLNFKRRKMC
UniProt P27467, residues 19-352: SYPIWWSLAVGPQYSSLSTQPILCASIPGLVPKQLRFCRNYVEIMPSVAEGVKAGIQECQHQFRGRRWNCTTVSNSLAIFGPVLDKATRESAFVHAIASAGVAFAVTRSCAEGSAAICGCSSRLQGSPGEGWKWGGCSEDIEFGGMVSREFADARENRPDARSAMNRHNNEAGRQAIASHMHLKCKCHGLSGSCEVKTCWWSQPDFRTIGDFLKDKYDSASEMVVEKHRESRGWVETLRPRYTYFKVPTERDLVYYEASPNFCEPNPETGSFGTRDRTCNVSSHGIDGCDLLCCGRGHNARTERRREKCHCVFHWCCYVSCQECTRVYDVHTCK

What was measured:
[1] = target: hRYKWD.Fc (WIF domain of human RYK fused to the Fc.FLAG region of human IgG1) (human) (UniProt P34925); assay: co-IP; 1 µg purified hRYKWD.Fc added to lysates (200 µg) of transiently transfected HEK293T cells; anti-FLAG IP, immunoblot with anti-Myc antibody; only the target purified
[2] = target: hRYK.Fc (entire human RYK extracellular region fused to Fc.FLAG) (human) (UniProt P34925); assay: co-IP; 250 ng purified hRYK.Fc pre-incubated with 20 µg scFv or IgG at 4°C for 1 h, then lysate of Wnt3a.Myc5- or Wnt5a.Myc5-transfected HEK293T cells (10-20 µg) and anti-FLAG M2 affinity gel, 4°C, 1 h; washes with 150 mM NaCl/0.1% Triton X-100, 500 mM NaCl, 50 mM Tris; blot with anti-Myc; only the target purified

binding [1] | binding [2] | Molecule
binds | binds | Wnt3a.Myc5 (from UniProt P27467 19-352) (ligand)
binds | – | Wnt1.Myc5 (ligand, UniProt P04426 28-370) ANSSGRWWGIVNIASSTNLLTDSKSLQLVLEPSLQLLSRKQRRLIRQNPGILHSVSGGLQSAVRECKWQFRNRRWNCPTAPGPHLFGKIVNRGCRETAFIFAITSAGVTHSVARSCSEGSIESCTCDYRRRGPGGPDWHWGGCSDNIDFGRLFGREFVDSGEKGRDLRFLMNLHNNEAGRTTVFSEMRQECKCHGMSGSCTVRTCWMRLPTLRAVGDVLRDRFDGASRVLYGNRGSNRASRAELLRLEPEDPAHKPPSPHDLVYFEKSPNFCTYSGRLGTAGTAGRACNSSSPALDGCELLCCGRGHRTRTQRVTERCNCTFHWCCHVSCRNCTHTRVLHECL
binds | binds | Wnt5a.Myc5 (ligand, UniProt P22725 62-380) IIGAQPLCSQLAGLSQGQKKLCHLYQDHMQYIGEGAKTGIKECQYQFRHRRWNCSTVDNTSVFGRVMQIGSRETAFTYAVSAAGVVNAMSRACREGELSTCGCSRAARPKDLPRDWLWGGCGDNIDYGYRFAKEFVDARERERIHAKGSYESARILMNLHNNEAGRRTVYNLADVACKCHGVSGSCSLKTCWLQLADFRKVGDALKEKYDSAAAMRLNSRGKLVQVNSRFNSPTTQDLVYIDPSPDYCVRNESTGSLGTQGRLCNKTSEGMDGCELMCCGRGYDQFKTVQTERCHCKFHWCCYVKCKKCTEIVDQFVCK
